Earlier results in US10071957B2, “N-substituted benzamides and methods of use thereof” (GENENTECH, INC., priority 2012, dated 2018).

Details: administered topically; cited from earlier work

Compound: CCN(CC)CC(=O)Nc1c(C)cccc1C [lidocaine]
- plasma concentrations: about 1 μM
